PubChem BioAssay AID2685 (National Center for Advancing Translational Sciences (NCATS), 2010)
Screen size: about 320,000 compounds; about 2,100 (0.66%) were called active. The shares of active, inactive and inconclusive entries below differ from those in the screen. Calls follow the shape of the dose curve; as a rule, active = well fitted inhibition curve with a large enough effect in the signal ratio, with a control signal flat (not every such curve was filed as active); inconclusive = small, poorly fitted or top-dose-only effect, or effect the other way, or a change in a side signal; inactive = flat fitted curve, though single readings scatter; the % refers to the signal ratio. Potencies beside an inconclusive call are fits to weak or partial responses and may not hold up.

Experiment: qHTS Assay for Lipid Storage Modulators in Drosophila S3 Cells
Conditions: BODIPY lipid droplet fluorescence, 18-24 h, cells fed with added oleic acid; lipid storage change, negative = inhibition: at 46.1 µM (top of the series) unless noted
Summary of the method: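 Drosophila S3 cells loaded with oleic acid (400 uM, as added) and compounds at several concentrations; lipid droplets imaged by 488-nm laser-scanning cytometry, 500–530 nm intensity and object ratio to cell channel. Percent activity normalized to 20 uM Triacsin C.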
% is scaled to controls: 0 for no effect and ±100 for the full control effect; potency is read from the fitted curve at half-maximal effect.

Row | SMILES | Potency | lipid storage change, negative = inhibition | outcome
1 | Cn1c2c(c(=O)c3ccccc31)CCCC2 | inconclusive: 29.1 µM [activator, partial curve, poor fit] |  | 
2 | Cc1cccc(NC(=O)/C(=C/c2cccc([N+](=O)[O-])c2)NC(=O)c2cccs2)c1 |  | inconclusive: -18.3% | 
3 | CCOC(=O)c1ccccc1NC(=O)COC(=O)C1CCCC1 |  | inconclusive: 9.56% | 
4 | Cc1nn(-c2ccccc2)c(C)c1NC(=O)COC(=O)c1cc([N+](=O)[O-])ccc1NCCO | inconclusive: 8.91 µM [falling, partial curve] |  | 
5 | CCN(CC)Cc1c(C(=O)N/N=C/c2ccc(OCc3ccccc3C)cc2)nnn1-c1nonc1N | inconclusive: 29.1 µM [falling, single point] |  | 
6 | O=C(NCCc1nc2ccc(Cl)cc2[nH]1)C1CCC(=O)N(Cc2cccc(F)c2)C1 (stereo not drawn) | inconclusive: 29.1 µM [falling, single point] |  | 
7 | CCOc1cc(S(=O)(=O)NCC2OCCc3ccccc32)c(OCC)cc1-n1cnnn1 (stereo not drawn) |  | inconclusive: 16.2% | 
8 | Cc1ccc(Cl)cc1N1CCN(c2cccc[n+]2C)CC1 |  | inconclusive: 9.95% | 
9 | O=S(=O)(Nc1ccccc1Cl)c1cccc2nsnc12 |  | inconclusive: 48.3% | 
10 | COc1ccc(C(=O)CN2Cc3ccccc3C2=N)cc1 |  | inconclusive: 14.8% | 
11 | O=C1NC(=O)/C(=C\c2ccccc2Oc2ccc(F)c(F)c2)S1 |  | inconclusive: 11.2% | 
12 | CCN(CC(=O)Nc1c(F)cccc1F)C(=O)c1ccc(COc2ccccc2)cc1 |  | inconclusive: -17.9% | 
13 | CCNC(=S)N/N=C(\C)c1ccco1 | inconclusive: 0.0046 µM [activator, full curve, poor fit] |  | 
14 | COc1ccc(NC(=O)CC(C)CC(=O)NCc2ccccc2)c(OC)c1 (stereo not drawn) | inconclusive: 18.4 µM [activator, single point] |  | 
15 | COc1ccc(N(CC(=O)NC2CCCC2)C(=O)CCC(=O)Nc2nc(C)cs2)cc1OC | inconclusive: 0.58 µM [activator, full curve, poor fit] |  | 
16 | COc1ccc2[nH]c(C)c(CCNC(=S)Nc3cc(C)ccc3C)c2c1 |  | inconclusive: 10.5% | 
17 | CCOC(=O)C1=C(C)NC(SC)=C(C#N)C1CC(C)C (stereo not drawn) | inconclusive: 4.61 µM [activator, single point] |  | 
18 | Cc1ccc(S(=O)(=O)NCC(=O)NC2CCCCCC2)cc1 | inconclusive: 0.0046 µM [falling, full curve] |  | 
19 | CC(C)[C@H](NC(=O)OCc1ccccc1)C(=O)OCC(=O)NC1(C#N)CCCC1 |  | inconclusive: 53.2% | 
20 | Cc1ccc2c(nc3s/c(=C/c4cccs4)c(=O)n32)c1C |  | inconclusive: -22.5% | 
21 | COC(=O)c1c(NC(=O)c2nc3nc(C)cc(C(F)F)n3n2)sc2c1CCC2 |  | inconclusive: 9.7% | 
22 | O=c1oc2ccccc2c(N2CCCCC2)c1CN1CCCC1 |  | inactive: 6.55% | 
23 | C=CCOc1cccc(/C=N/NC(=O)CN(c2cc(Cl)ccc2OC)S(=O)(=O)c2ccc(C)c([N+](=O)[O-])c2)c1 | inconclusive: 1.84 µM [activator, partial curve, poor fit] |  | 
24 | COP(=O)(OC)C(Nc1ccc(C)cc1)c1ccc([N+](=O)[O-])cc1 (stereo not drawn) |  | inconclusive: 5.89% | 
25 | Clc1ccc(SCCCCn2ccnc2)cc1 |  | inconclusive: 71.9% | 

Row | SMILES | Potency | lipid storage change, negative = inhibition | outcome
26 | c1ccc(-c2cc(N3CCCCC3)c3ccccc3n2)cc1 |  | inconclusive: 13% | 
27 | COc1ccc(CN2CCn3ncc(C(=O)Nc4ccccc4)c3C2=O)cc1 | inconclusive: 1.3 µM [falling, full curve, poor fit] |  | 
28 | CCOc1ccc(N/N=C(/C#N)C(N)=O)cc1 |  | inconclusive: -22.3% | 
29 | O=C(CC1C(=O)NC2CCCCC2N1C(=O)c1ccc([N+](=O)[O-])cc1)Nc1ccccc1 (stereo not drawn) |  | inconclusive: -9.28% | 
30 | O=C(NNc1nc(-c2ccc(Br)cc2)cs1)c1ccco1 | inconclusive: 29.1 µM [falling, single point] |  | 
31 | CCOC(=O)C1=C(CN2CCN(c3ccc(F)cc3)CC2)NC(=O)NC1c1cccs1 (stereo not drawn) | inconclusive: 20.6 µM [activator, single point] |  | 
32 | O=C(Oc1ccc(N2C(=O)CCC2=O)cc1)c1ccccc1Cl |  | inconclusive: 10.7% | 
33 | Cc1cccc(C(=O)N/N=C2\CS(=O)(=O)N(C)c3ccsc32)c1 |  | inconclusive: -6.29% | 
34 | CCN(CC(=O)NCc1cccs1)C(=O)/C=C/c1cccc(OC)c1OC |  | inconclusive | 
35 | COc1cccc(C(c2sc3ncnn3c2O)N2CC(C)OC(C)C2)c1 (stereo not drawn) | inconclusive: 2.59 µM [rising, partial curve] |  | 
36 | CC(=O)NC(Cc1ccccc1C)C(=O)NC1CCN(c2ncccc2[N+](=O)[O-])CC1 (stereo not drawn) | inconclusive: 0.206 µM [rising, partial curve, poor fit] |  | 
37 | CC/C(C)=N/Nc1nc(-c2cc3cccc(OC)c3oc2=O)cs1 |  | inconclusive: 2.25% | 
38 | CCOC(=O)N1CCN(Cc2ccccc2F)CC1 |  | inconclusive: -63.4% | 
39 | CCOc1ccc(/C=C2/SC(=O)NC2=S)cc1 |  | inconclusive: 19.1% | 
40 | O=C(COC(=O)C1CCN(c2ccc(C(F)(F)F)cn2)CC1)Nc1ccc(F)cc1[N+](=O)[O-] |  | inconclusive | 
41 | COc1cc2c(cc1OC)-c1cc3ccc4c(c3c[n+]1CC2)OCO4 |  | inconclusive: 29.7% | 
42 | Cc1cc(C(=O)NCC(=O)OCC(=O)N(C)C2CCCCC2)ccc1[N+](=O)[O-] |  | inconclusive: 128% | 
43 | CS(=O)(=O)N(CC(=O)O)c1cc(Cl)cc(Cl)c1 |  | inconclusive: -41.7% | 
44 | Cn1nc(CC(=O)NCc2ccc(F)cc2)c2ccccc2c1=O | inconclusive: 29.1 µM [falling, single point] |  | 
45 | Cc1ccccc1S(=O)Cc1ccc(C(=O)NCCN2CCOCC2)o1 (stereo not drawn) | inconclusive: 7.31 µM [activator, partial curve] |  | 
46 | CCN1CCN(Cc2ccc3c(c2)Cc2ccccc2-3)CC1 |  | inconclusive: -61.3% | 
47 | O=C(CCCc1nc(-c2ccccc2)no1)NC1CCCC1 |  | inconclusive: 86.6% | 
48 | COC(=O)C1C/C(=N\NS(=O)(=O)c2ccc(C)cc2)c2ccsc2C1 (stereo not drawn) |  | inconclusive: -5.02% | 
49 | CCC(=O)N1CCc2cc(S(=O)(=O)N3CCN(c4cc(C)ccc4C)CC3)ccc21 | inconclusive: 29.1 µM [activator, single point] |  | 
50 | Cc1cc(C)n2nc(SCc3cc(=O)oc4ccc5ccccc5c34)nc2n1 |  | inconclusive: 13% | 

Row | SMILES | Potency | lipid storage change, negative = inhibition | outcome
51 | C[C@]12CCC(O)CC1CCC1C2CC[C@]2(C)C(c3cc(C(F)(F)F)n[nH]3)CCC12 (stereo partly drawn) | inconclusive: 0.291 µM [activator, full curve, poor fit] |  | 
52 | O=C1CN(C(=O)NCC(=O)N2CCCC2)c2ccccc2N1 |  | inconclusive: 229% | 
53 | C[C@H](NC(=O)c1ccco1)C(=O)NCc1cccs1 |  | inconclusive: 6.63% | 
54 | O=C(NC1CCCCCC1)c1ccc(CS(=O)(=O)Cc2ccc(F)cc2)o1 | inconclusive: 29.1 µM [falling, single point] |  | 
55 | Cc1cc(=O)oc2cc(OCC(=O)N3CC[C@@]4(O)CCCC[C@H]4C3)ccc12 |  | inconclusive: -47% | 
56 | COCCCn1c(=O)/c(=C\c2cccc(OC)c2OC)s/c1=C(/C#N)C(=O)Nc1ccc(C(=O)O)cc1 | inconclusive: 23.1 µM [falling, partial curve, poor fit] |  | 
57 | Cc1cc(NS(=O)(=O)c2ccc(NC(=O)C(CC(C)C)N3C(=O)c4ccccc4C3=O)cc2)nc(C)n1 (stereo not drawn) |  | inconclusive: -3.97% | 
58 | O=C1C=C(c2ccccc2Oc2ccccc2)C[C@@H](c2ccc3c(c2)OCO3)C1 |  | inconclusive: 8.57% | 
59 | Cc1ccc(C)c(OCc2cc(C(=O)N3CCC(N4CCCC(O)C4)CC3)no2)c1 (stereo not drawn) | inconclusive: 3.66 µM [falling, single point] |  | 
60 | COc1ccc(C(=O)NCCCCNC(=O)c2ccc(OC)c(OC)c2)cc1OC |  | inactive: 17.3% | 
61 | O=C(CNS(=O)(=O)Cc1ccccc1)NCc1ccccc1 | inconclusive: 0.116 µM [activator, full curve, poor fit] |  | 
62 | CCCCOc1ccc(C(=O)Nc2ccc(N3CCN(C(C)=O)CC3)cc2)cc1 | inconclusive: 29.1 µM [rising, single point] |  | 
63 | O=C(CSc1nnc2ccccn12)NNC(=O)c1ccc(Cl)cc1 |  | inconclusive: 16% | 
64 | Cc1c(C(=O)N2CCN(S(=O)(=O)c3ccc(F)cc3)CC2)oc2ccccc12 | inconclusive: 2.06 µM [activator, partial curve] |  | 
65 | O=C(OCC(=O)N1CCOCC1)c1ccc(Cl)nc1 | inconclusive: 23.1 µM [activator, partial curve] |  | 
66 | CCC1CN(C(=O)N2CCC(C(=O)NCc3cc(OC)c(OC)c(OC)c3)CC2)c2ccccc2O1 (stereo not drawn) |  |  | inactive [at 46.1 µM]
67 | COc1ccc(CCC(=O)Nc2ccc(Cn3ccnc3)cc2)cc1 |  | inconclusive: 87.3% | 
68 | CCOc1ccc(NC(=O)COC(=O)c2c(OC)cccc2OC)cc1 | inconclusive: 5.17 µM [activator, partial curve] |  | 
69 | COc1ccccc1C(=O)NCCC(=O)N(C)CC(=O)Nc1ccc(N2CCOCC2)cc1 |  | inconclusive: 16.5% | 
70 | O=C1c2ccccc2C(=O)N1Cc1ccc2c(c1)OCO2 | inconclusive: 1.64 µM [activator, partial curve] |  | 
71 | CCc1nnc(NC(=O)c2ccc(S(=O)(=O)N3CCCC3)cc2)s1 |  | inconclusive: 29.2% | 
72 | COc1ccc(N2CCc3c(C)nc4c(OC)cccc4c32)cc1 |  | inconclusive: -25.3% | 
73 | CC(C)c1cccc(C(C)C)c1NC(=O)COC(=O)C1=COCCO1 | inconclusive: 29.1 µM [cytotoxic, single point] |  | 

A second format for 3 compounds above.
Row	SMILES	Potency	lipid storage change, negative = inhibition	outcome
69	COc1ccccc1C(=O)NCCC(=O)N(C)CC(=O)Nc1ccc(N2CCOCC2)cc1		inconclusive: 16.5%	
70	O=C1c2ccccc2C(=O)N1Cc1ccc2c(c1)OCO2	inconclusive: 1.64 µM [activator, partial curve]		
71	CCc1nnc(NC(=O)c2ccc(S(=O)(=O)N3CCCC3)cc2)s1		inconclusive: 29.2%	
